We go through 29 sequences from PubChem BioAssay AID1347423 (Functional Genomics Laboratory (NCATS/FGL), 2020).

About 210 (0.4%) of roughly 52,000 sequences were called active.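 Rule for the calls: active = gene whose silencing raises cell survival under the drug, median off-target-corrected z-score across its silencing RNAs 2 or more; inactive = the rest.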 This is one part of the list.

This assay in a line: Resistance to Poly (ADP-Ribose) Polymerase inhibitor: Gene Identification via Genome-wide siRNA Screen. To be noted: mouse BRCA2 R2336H ES cells, olaparib, CellTiter-Glo viability; active compounds read high. In a few lines:
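Mouse BRCA2 R2336H ES cells were reverse-transfected with siRNA (20 nM final), treated at 48 h with 500 nM olaparib, and read by CellTiter-Glo after 72 h. Scores: MAD-based z per siRNA, median per gene, seed off-target correction.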
Background: Cellular ATP, detected with luciferase, serves as a proxy for viable cell number.
On to GGUUAAUCUGAGAAUUCUATT against Kcnk1, for which the z-score is inactive: 0.739.
For GGUGAUAAAGCCAAGCAAATT against Vps4b, the z-score was inactive: 1.99.
For CCAACUUUAUCUAAGGUGCTT against Bhmt, the z-score is inactive: 0.682.
As for GGAGUCCUUCUUUCACUGGTT against Pep4, the z-score was inactive: -0.12.
The same measure for GCCUUUCCACCGAUGAAAUTT against Dpyd: inactive: -1.67.
As to GCUACAAGCGAUAUAUUCCTT against Jak1, the z-score is active: 2.92.
In the case of GCUCUUAAUCCUAUCUAUCTT against Rgs9bp it was inactive: 0.527; in that of CCAGUCUUAUCUGUAGAAGTT against Obox1, inactive: 0.436; in that of CGACUAUUUGGGUGGCAAGTT against Scin, inactive: 0.741.
For the sequence “GGUUACGAAAAGCUGCCUUTT against 2010321M09Rik”, the z-score is inactive: -2.05.
GCUCAAUUGUUCUUCUUUUTT against Olfr806: the z-score was inactive: 1.22.
On to GGCAUUCAGAAACAUGGUUTT against Esx1, for which the z-score is inactive: -0.721.
The same measure for GGACAUGGAAAACAAAAUCTT against Capzb: inactive: -0.452; for GGCUGAUCCUAAGAAAGAATT against BC017158: inactive: -2.04.
The same measure for GGAAGGACAGACAGACAAGTT against Pxt1: inactive: -1.51.
In the case of GGAAAAAUAGGUCGAAUGATT against Arntl it was inactive: -0.785.
Turning to CCGUAUCAUCCAGUUUAACTT against Gnpda1, the z-score was inactive: 0.449.
The same measure for “GCAGUGUUGUCAAAACUUGTT against 2310020P08Rik”: inactive: 1.21.
In the case of GCUGAGACUUCGAGCCUAUTT against Polr2c it was inactive: -2.53; in that of CCACAUCCCACGGGAUCUUTT against BC050210, inactive: 0.917.
In the case of GGAAUGAAAUCUCUGCAUGTT against Za20d2 it was inactive: -0.0858; in that of GGAUGAACUGACUAAAAUATT against Fmn, inactive: 0.465; in that of GGAAACUUGAUUAUUUAGGTT against Vrk2, inactive: 0.0722.
As for GGCUGCUGUUGUGCCUAAATT against Zdhhc12, the z-score was inactive: -1.78.
In the case of “GGGCUCACACAAAUAAGAGTT against 2600017H02Rik” it was inactive: -0.734.
With GGACUUCAACUUGAUGGAGTT against Add2, the z-score was inactive: -0.0368.
In the case of “GAGUGGAUGGCUCAAAGGATT against 6430544H17Rik” it was inactive: 0.555.
As to GGGACAAGAAGAACAAGAGTT against Srp14, the z-score was inactive: 0.995.
In the case of GGCUGUCUUCUGAAGGACATT against Mrpl43, the z-score was inactive: -1.21.
